Data as given in patent US20110306671A1, “AMIDE DERIVATIVES OF ETHACRYNIC ACID” (The Regents of the The University of California, priority 2008, published 2011).
Where a name gives a salt, the structure may show the parent alone. At least one compound was matched to its structure with a doubt left.

Tested on: Wnt/β-catenin signaling
Assay: TOPflash reporter assay in transfected HEK293 cells
Format: cell-based, human
Conditions: TOPflash + Dvl; 50 μM EA with 1 mM NAC, 100 μM PDTC or 100 μM BHA; 24 hours

S=C(S)N1CCCC1 [PDTC, pyrrolidinedithiocarbamate ammonium salt]
effect on EA-induced inhibition of Wnt/β-catenin signaling: did not reverse
